We go through one substance from paper PMC8336496.

Amino acid sequences for entries named in this document (tags omitted). A change or cut given only in a name is not applied to a line headed by its entry.
UniProt P11087: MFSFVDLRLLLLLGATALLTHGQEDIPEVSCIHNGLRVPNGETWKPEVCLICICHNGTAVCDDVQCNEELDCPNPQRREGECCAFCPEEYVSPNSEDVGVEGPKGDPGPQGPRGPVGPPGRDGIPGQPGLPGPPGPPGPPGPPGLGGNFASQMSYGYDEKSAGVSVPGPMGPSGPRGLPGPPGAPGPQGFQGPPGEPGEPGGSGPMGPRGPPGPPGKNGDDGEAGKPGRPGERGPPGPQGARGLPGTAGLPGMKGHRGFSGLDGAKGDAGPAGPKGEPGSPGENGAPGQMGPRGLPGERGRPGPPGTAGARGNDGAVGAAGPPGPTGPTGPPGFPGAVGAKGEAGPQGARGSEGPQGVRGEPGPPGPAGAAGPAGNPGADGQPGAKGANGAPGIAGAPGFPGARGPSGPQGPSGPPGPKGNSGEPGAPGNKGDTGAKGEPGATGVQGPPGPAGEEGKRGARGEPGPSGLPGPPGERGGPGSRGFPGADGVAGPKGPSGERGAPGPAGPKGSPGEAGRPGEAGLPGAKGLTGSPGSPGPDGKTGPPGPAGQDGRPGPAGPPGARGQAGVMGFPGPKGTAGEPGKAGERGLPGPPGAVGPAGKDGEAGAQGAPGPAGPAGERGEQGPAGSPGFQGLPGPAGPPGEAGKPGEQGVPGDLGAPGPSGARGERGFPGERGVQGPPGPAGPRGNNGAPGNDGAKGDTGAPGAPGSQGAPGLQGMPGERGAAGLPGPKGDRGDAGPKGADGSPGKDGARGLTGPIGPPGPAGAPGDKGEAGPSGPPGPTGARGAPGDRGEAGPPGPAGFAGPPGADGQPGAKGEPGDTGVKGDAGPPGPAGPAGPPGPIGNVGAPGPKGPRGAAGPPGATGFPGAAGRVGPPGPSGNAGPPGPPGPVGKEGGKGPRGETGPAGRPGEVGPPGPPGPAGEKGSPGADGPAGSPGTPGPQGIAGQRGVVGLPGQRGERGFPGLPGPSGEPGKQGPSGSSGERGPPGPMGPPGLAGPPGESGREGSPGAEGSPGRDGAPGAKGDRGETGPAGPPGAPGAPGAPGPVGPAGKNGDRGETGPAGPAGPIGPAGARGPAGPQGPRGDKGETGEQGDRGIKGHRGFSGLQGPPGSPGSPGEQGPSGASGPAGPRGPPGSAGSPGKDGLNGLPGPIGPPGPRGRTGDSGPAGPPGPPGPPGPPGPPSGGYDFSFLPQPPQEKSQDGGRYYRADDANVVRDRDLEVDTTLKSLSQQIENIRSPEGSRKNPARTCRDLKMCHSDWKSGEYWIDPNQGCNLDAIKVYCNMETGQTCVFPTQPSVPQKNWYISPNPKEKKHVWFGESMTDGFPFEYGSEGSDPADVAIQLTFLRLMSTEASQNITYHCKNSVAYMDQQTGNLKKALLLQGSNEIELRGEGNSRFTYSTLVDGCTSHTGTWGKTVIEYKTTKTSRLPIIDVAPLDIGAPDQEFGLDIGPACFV

The target in the assay is T1, His-tagged translocation-associated membrane protein 2 (TRAM2) (UniProt Q924Z5).
T1 sequence: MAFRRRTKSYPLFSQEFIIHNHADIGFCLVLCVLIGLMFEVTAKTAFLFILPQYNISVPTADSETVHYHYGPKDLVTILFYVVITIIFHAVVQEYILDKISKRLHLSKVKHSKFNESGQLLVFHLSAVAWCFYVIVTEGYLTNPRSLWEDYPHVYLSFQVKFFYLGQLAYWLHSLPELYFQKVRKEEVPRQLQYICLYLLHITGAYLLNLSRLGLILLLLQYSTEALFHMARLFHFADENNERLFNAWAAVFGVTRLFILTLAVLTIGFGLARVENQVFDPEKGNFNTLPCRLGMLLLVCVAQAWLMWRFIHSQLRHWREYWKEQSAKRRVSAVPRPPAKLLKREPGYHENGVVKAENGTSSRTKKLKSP
Kind of assay: co-IP; His antibody precipitates N-terminally His-tagged TRAM2 from transfected BMSCs; blots for endogenous SERCA2b and Col1; cells treated with Ion, TG, FT011 or FT011 plus Lv-Col1.

These are yes or no findings as the source states them, for the method shown. In cells and extracts the contact can be indirect. Binding can be weak; no strength is given. Tags and fused reporters may be left off the sequences shown.

As to collagen 1 (Col1) (from UniProt P11087), the binding result is given as “binds”.
